In paper PMC3083433:
These are yes or no findings as the source states them, for the method shown. In cells and extracts the contact can be indirect. Some binding calls cover weakened binding; strength is not graded here.

Protein sequences, listed by entry. Tags and fused reporters are not part of them. Residues count along the entry.
UniProt P09055, residues 21-798: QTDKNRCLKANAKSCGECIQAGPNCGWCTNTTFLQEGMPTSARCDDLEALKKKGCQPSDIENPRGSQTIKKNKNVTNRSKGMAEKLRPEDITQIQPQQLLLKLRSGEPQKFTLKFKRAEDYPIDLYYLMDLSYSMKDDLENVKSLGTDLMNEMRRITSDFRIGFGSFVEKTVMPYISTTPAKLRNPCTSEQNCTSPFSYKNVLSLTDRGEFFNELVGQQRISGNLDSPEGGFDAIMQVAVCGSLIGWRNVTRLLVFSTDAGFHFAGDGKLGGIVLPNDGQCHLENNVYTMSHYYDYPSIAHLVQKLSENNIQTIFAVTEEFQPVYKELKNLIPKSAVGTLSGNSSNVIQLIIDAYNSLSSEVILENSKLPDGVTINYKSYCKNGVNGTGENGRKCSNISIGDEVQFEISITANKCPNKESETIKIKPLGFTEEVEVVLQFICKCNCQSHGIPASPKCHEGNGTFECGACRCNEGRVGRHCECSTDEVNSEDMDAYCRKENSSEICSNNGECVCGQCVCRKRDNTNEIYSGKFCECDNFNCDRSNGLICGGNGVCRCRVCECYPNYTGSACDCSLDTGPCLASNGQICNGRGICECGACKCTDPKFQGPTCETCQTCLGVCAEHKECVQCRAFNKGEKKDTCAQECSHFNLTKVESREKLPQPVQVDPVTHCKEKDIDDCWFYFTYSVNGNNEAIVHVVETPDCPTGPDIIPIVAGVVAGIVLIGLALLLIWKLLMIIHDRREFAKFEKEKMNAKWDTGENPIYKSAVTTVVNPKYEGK

Key:
[1] = target: β1 integrins (mouse (endogenous in NIH3T3)) (UniProt P09055); assay: co-IP; antibody uptake with surface-bound 9EG7-Fab against β1 integrin after metabolic labelling with 35S-Translabel (tTG induced 3 h before the end of labelling); internalized β1 integrins and associated proteins immunoprecipitated, SDS-PAGE and fluorography; tTG reprecipitated from the β1 integrin immune complexes
[2] = target: β1 integrins (mouse (endogenous in NIH3T3)) (UniProt P09055); assay: co-IP; β1 integrins immunoprecipitated from total cell lysates of NIH3T3-tTG fibroblasts 3 h after induction of tTG synthesis; immune complexes probed for β1 integrin and tTG by immunoblotting
[3] = target: β1 integrins (mouse (endogenous in NIH3T3)) (UniProt P09055); assay: co-IP; recycling endosomes isolated from crude membrane fraction with magnetic beads coated with antibody to Rab11 (3 h induction); β1 integrins immunoprecipitated from the endosome lysates; immune complexes probed for β1 integrin and tTG

binding [1]: binds
binding [2]: binds
binding [3]: binds
B1: tissue transglutaminase (tTG) (enzyme, UniProt P21980 1-687)
chain: MAEELVLERCDLELETNGRDHHTADLCREKLVVRRGQPFWLTLHFEGRNYEASVDSLTFSVVTGPAPSQEAGTKARFPLRDAVEEGDWTATVVDQQDCTLSLQLTTPANAPIGLYRLSLEASTGYQGSSFVLGHFILLFNAWCPADAVYLDSEEERQEYVLTQQGFIYQGSAKFIKNIPWNFGQFEDGILDICLILLDVNPKFLKNAGRDCSRRSSPVYVGRVVSGMVNCNDDQGVLLGRWDNNYGDGVSPMSWIGSVDILRRWKNHGCQRVKYGQCWVFAAVACTVLRCLGIPTRVVTNYNSAHDQNSNLLIEYFRNEFGEIQGDKSEMIWNFHCWVESWMTRPDLQPGYEGWQALDPTPQEKSEGTYCCGPVPVRAIKEGDLSTKYDAPFVFAEVNADVVDWIQQDDGSVHKSINRSLIVGLKISTKSVGRDEREDITHTYKYPEGSSEEREAFTRANHLNKLAEKEETGMAMRIRVGQSMNMGSDFDVFAHITNNTAEEYVCRLLLCARTVSYNGILGPECGTKYLLNLNLEPFSEKSVPLCILYEKYRDCLTESNLIKVRALLVEPVINSYLLAERDLYLENPEIKIRILGEPKQKRKLVAEVSLQNPLPVALEGCTFTVEGAGLTEEQKTVEIPDPVEAGEEVKVRMDLLPLHMGLHKLVVNFESDKLKAVKGFRNVIIGPA
